Measured values taken from patent US6335013B1, “Methods and materials relating to CD39-like polypeptides” (Hyseq, Inc., priority 1999, dated 2002).
These are yes or no findings as the source states them, for the method shown. Some results given as binding are weak or reduced against the parent protein; the word gives no strength. Sequences can lack the tags named with a protein.

The chains behind the UniProt entries cited, without tags or fusion partners. Where a name states a change or a piece, a line headed by the entry shows the natural chain unless it says otherwise.
UniProt O75356: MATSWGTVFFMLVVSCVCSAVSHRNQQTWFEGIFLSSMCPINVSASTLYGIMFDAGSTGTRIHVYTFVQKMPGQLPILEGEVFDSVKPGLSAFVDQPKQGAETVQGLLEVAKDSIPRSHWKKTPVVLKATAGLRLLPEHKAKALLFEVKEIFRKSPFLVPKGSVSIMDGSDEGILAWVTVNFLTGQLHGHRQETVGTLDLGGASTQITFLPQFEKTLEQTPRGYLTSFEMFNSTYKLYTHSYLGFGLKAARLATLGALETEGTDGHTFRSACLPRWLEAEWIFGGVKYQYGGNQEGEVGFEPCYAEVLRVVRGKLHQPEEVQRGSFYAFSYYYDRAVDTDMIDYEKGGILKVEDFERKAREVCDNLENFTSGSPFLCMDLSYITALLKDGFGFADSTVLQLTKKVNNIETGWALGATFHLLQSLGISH

Columns and labels:
[1] = molecular target: CD39-L4-6His (human) (UniProt O75356); assay: non-reducing SDS-PAGE, Western blot; self-association; band lost on reduction
[2] = molecular target: CD39-L4-6His (human) (UniProt O75356); assay: sucrose density gradient ultracentrifugation and Western blot; self-association
[3] = molecular target: CD39-L4-6His (human) (UniProt O75356); assay: recap of Example 6D; self-association
[4] = molecular target: CD39-L4-6His (human) (UniProt O75356); assay: nonreducing versus reducing SDS-PAGE, Western blot; self-association
[5] = molecular target: CD39-L4-6His (human) (UniProt O75356); assay: non-reducing SDS-PAGE, Western blot; self-association

binding [1]: binds
binding [2]: binds
binding [3]: binds
binding [4]: binds
binding [5]: binds
B1: CD39-L4-6His (protein)
chain: HRGSHHHHHHNQQTWFEGIFLSSMCPINVSASTLYGIMFDAGSTGTRIHVYTFVQKMPGQLPILEGEVFDSVKPGLSAFVDQPKQGAETVQGLLEVAKDSIPRSHWKKTPVVLKATAGLRLLPEHKAKALLFEVKEIFRKSPFLVPKGSVSIMDGSDEGILAWVTVNFLTGQLHGHRQETVGTLDLGGASTQITFLPQFEKTLEQTPRGYLTSFEMFNSTYKLYTHSYLGFGLKAARLATLGALETEGTDGHTFRSACLPRWLEAEWIFGGVKYQYGGNQEGEVGFEPCYAEVLRVVRGKLHQPEEVQRGSFYAFSYYYDRAVDTDMIDYEKGGILKVEDFERKAREVCDNLENFTSGSPFLCMDLSYITALLKDGFGFADSTVLQLTKKVNNIETGWALGATFHLLQSLGISH
